# The whole screen tested about 300,000 compounds, of which about 5,400 (1.8%) were called active. This list was built around the results that the source calls inconclusive (neither active nor inactive); the mix of calls is not that of the screen. Calls follow the shape of the full dose curve; tested in HEK293 cells. A potency beside an inconclusive call is a rough fit, not a confirmed value.
# Assay: qHTS for inhibitors of binding or entry into cells for Marburg Virus
# Settings: Marburg virus pseudotyped entry inhibition, cell reporter; activity change, negative = inhibition: at 37.8 µM (top of the series) unless noted
# % is scaled to controls: 0 for no effect and ±100 for the full control effect; potency is read from the fitted curve at half-maximal effect.
SMILES,Potency,"activity change, negative = inhibition"
COC(=O)c1ccnc(SCC(=O)c2ccccc2)c1,"inconclusive: 2.51 µM [activator, single point]",–
CC(C)c1ccc(NC(=O)CCCc2nc(-c3ccc(Cl)cc3)no2)cc1,inactive,–
CCOc1ccc(NC(=O)c2ccc3nccnc3c2)cc1,inactive,–
CCOc1ccc(/C=N/Nc2nc(N3CCCC3)nc(N3CCCC3)n2)cc1OC,"inconclusive: 14.6 µM [inhibitor, partial curve, poor fit]",–
CCOC(=O)CN1C(=O)N(CC)C(C)=C(C(=O)OC)C1c1ccccc1 (centres undefined),"inconclusive: 0.0038 µM [inhibitor, full curve, poor fit]",–
CCc1nccn1S(=O)(=O)c1ccc2ccc(C)cc2c1,"inconclusive: 12.6 µM [activator, single point]",–
COc1cccc(CC(=O)Nc2nc(C)cs2)c1,"inconclusive: 17.8 µM [inhibitor, single point]",–
CCC(Sc1nc2cc3c(cc2c(=O)n1Cc1ccco1)OCO3)C(=O)Nc1cccc(OC)c1 (centres undefined),"inconclusive: 0.184 µM [inhibitor, full curve, poor fit]",–
CCOC(=O)c1c(C)n(C)c2ccc(OCC(O)Cn3nc(C)cc3C)cc12 (centres undefined),"inconclusive: 5.17 µM [inhibitor, full curve]",–
CCc1ccc(-c2cc(C(F)(F)F)n3nc(C(=O)Nc4c(C)nn(Cc5ccc(F)cc5)c4C)cc3n2)s1,"inconclusive: 9.2 µM [inhibitor, partial curve, poor fit]",–
COc1ccc(OCc2nnc(SCC(=O)N3c4ccccc4Sc4ccc(Cl)cc43)o2)cc1,"inconclusive: 16.4 µM [inhibitor, single point]",–
Oc1c(Br)cc(Br)cc1CNc1ccc(F)cc1,"inconclusive: 28.2 µM [inhibitor, single point]",–
N#CC1=C(C=Nc2ccccc2O)CCC1,"inconclusive: 2.06 µM [inhibitor, partial curve, poor fit]",–
COc1cc(/C=C2\SC(=S)N(NC(=O)c3ccc(O)cc3)C2=O)ccc1O,"inconclusive: 7.08 µM [inhibitor, partial curve, poor fit]",–
C(=Cc1c[nH]c2ccccc12)c1ccc2ccccc2n1,active: 2.24 µM,–
COc1ccc(-n2nc(C(=O)NCC(=O)NCCCN3CC(C)CC(C)C3)c3ccccc3c2=O)cc1Cl (centres undefined),"inconclusive: 35.5 µM [inhibitor, single point]",–
CC(C)C(c1nnnn1C1CCCCC1)N1CCc2ccccc2C1 (centres undefined),inactive,–
O=C(NC12CC3CC(CC(C3)C1)C2)N1CCCC(CO)C1 (centres undefined),–,inconclusive: 25.3% [activator]
Cc1cccc(-c2nnc3n2N=C(c2ccccc2Br)CS3)c1,"inconclusive: 35.5 µM [inhibitor, single point]",–
Cc1onc(-c2ccccc2)c1-c1nc2ccccc2c(=O)o1,"inconclusive: 2.24 µM [activator, partial curve]",–
Cn1ncc([N+](=O)[O-])c1C(=O)Nc1ccc2c(c1)OCCO2,inactive,–
Cc1ccc(C(=O)NCC(c2ccc(F)cc2)N2CCOCC2)cc1S(=O)(=O)N1CCOCC1 (centres undefined),inactive,–
Cc1cc(C)c2c(-n3cccc3)c(C(=O)NCCc3ccc(Cl)cc3)sc2n1,"inconclusive: 14.1 µM [activator, single point]",–

SMILES,Potency,"activity change, negative = inhibition"
Cc1c(-c2ccc(F)cc2)nc(N)c(C#N)c1-c1cccs1,inactive,–
COc1cc(-c2cc(OC)c3c(C)oc(C)c3c(=O)c2)ccc1OC(=O)c1ccccc1C,"inconclusive: 35.5 µM [inhibitor, single point]",–
COC(=O)C1=C(C(=O)OC)[C@@H]2N(C)c3ccccc3[C@@]23C[C@@H](C(=O)OC)N(C(=O)NCCBr)C3=N1,"inconclusive: 5.96 µM [inhibitor, single point]",–
COc1cc(/C=C(/C#N)C(=O)Nc2ccccc2)c(Br)cc1OCc1ccc(C(=O)O)cc1,inactive,–
O=C(CN1C(=O)C(c2ccc(F)cc2)=NC12CCCCCC2)Nc1ccc(F)c(Cl)c1,inactive,–
Cc1ccc(N2C(=O)CSC2c2cccnc2)c(Cl)c1 (centres undefined),"inconclusive: 2 µM [inhibitor, partial curve, poor fit]",–
C=CCn1c(COc2ccccc2)nnc1SC(C)C(=O)N/N=C/c1cc(Cl)ccc1O (centres undefined),"inconclusive: 35.5 µM [inhibitor, single point]",–
COCCCN1C(=O)c2ccc(C(=O)Nc3ccc(OC)cc3)cc2C1=O,inactive,–
O=C(CN1C(=O)NC(c2ccccc2)(c2ccccc2)C1=O)NCCc1ccc(F)cc1,"inconclusive: 20 µM [inhibitor, partial curve, poor fit]",–
N=c1nc(N)nc2n1NC(c1ccc(F)cc1)=CS2,"inconclusive: 6.51 µM [inhibitor, partial curve]",–
CCOc1ccc(S(=O)(=O)Oc2ccc3ccccc3c2)cc1,inactive,–
COc1ccc(C2=NN(C(C)=O)C(c3ccccc3)C2)cc1 (centres undefined),"inconclusive: 2.51 µM [activator, single point]",–
O=C(NN=C1C[C@@H](O)[C@H](O)[C@H]2[C@@H]3C(=O)N(C4CCCCC4)C(=O)[C@@H]3CC[C@H]12)OCc1ccccc1,"inconclusive: 0.0841 µM [inhibitor, full curve, poor fit]",–
CC(=O)Nc1ccc(OCC(O)Cn2c3ccccc3c3ccccc32)cc1 (centres undefined),"inconclusive: 35.5 µM [inhibitor, single point]",–
CCOc1ccc(C(=O)N2CCN(c3ccccc3)CC2)cc1,"inconclusive: 6.31 µM [inhibitor, single point]",–
Cc1sc(NC(=S)NC(=O)c2ccc(C(C)(C)C)cc2)c(C#N)c1C,active: 8.2 µM,–
COCCNC(=O)C(c1ccc(F)cc1)N(C(=O)CCC(=O)Nc1ccccn1)C1CCCCC1 (centres undefined),inactive,–
COc1ccc(OC)c(NC(=O)Cn2cc(C(=O)c3ccco3)c3ccccc32)c1,"inconclusive: 29.1 µM [inhibitor, partial curve, poor fit]",–
COc1ccc(S(=O)(=O)N2CCN(C(=O)c3c(C)nn(-c4ccccc4)c3C)CC2)cc1,inactive,–
Cc1c(N(C)S(=O)(=O)c2cc(C(=O)NCC3CCCO3)ccc2Cl)c(=O)n(-c2ccccc2)n1C (centres undefined),inactive,–
COC1=C(OC)CC2=C(CCN=C2/C(=N\O)C2CCC(OC)C(OC)C2)C1 (centres undefined),inactive,–
COc1cccc(NC(=O)CSc2nc3ccc(NC(=O)c4ccco4)cc3s2)c1,"inconclusive: 35.5 µM [inhibitor, single point]",–
CS(=O)(=O)c1ccc(Cl)c(NC(=O)COC(=O)c2c(Cl)cccc2Cl)c1,inactive,–

# Two records picked at random from the list so far, as already listed:
SMILES,Potency,"activity change, negative = inhibition"
COc1ccc(C2=NN(C(C)=O)C(c3ccccc3)C2)cc1 (centres undefined),"inconclusive: 2.51 µM [activator, single point]",–
O=C(CN1C(=O)NC(c2ccccc2)(c2ccccc2)C1=O)NCCc1ccc(F)cc1,"inconclusive: 20 µM [inhibitor, partial curve, poor fit]",–

# Following part:

SMILES,Potency,"activity change, negative = inhibition"
Cc1ccc(CCNC(=O)C2CCN(C(=O)N(C)C)CC2)cc1,inactive,–
Cc1ccc(Nc2nc(Cl)nc3ncn(C)c23)c(C)c1,"inconclusive: 35.5 µM [inhibitor, single point]",–
Cc1nc(-c2ccc(NC(=O)C3CC3)cc2)cs1,"inconclusive: 1.78 µM [activator, full curve, poor fit]",–
CCNC(=O)c1ccc(CSc2ccc(Cl)cc2)cc1,inactive,–
Cc1ccc(S(=O)(=O)N2CCN(C(=O)c3c(-c4ccccc4)noc3C)CC2)c(C)c1,"inconclusive: 35.5 µM [inhibitor, single point]",–
COc1c(C)oc2cc(O)ccc2c1=O,inactive,–
CCOC(=O)CCCCC(=O)c1[nH]c(=O)[nH]c1CSc1nc(C)cc(C)n1,inactive,–
COc1ccc(OCC#CCNC(C)(C)C)cc1,"inconclusive: 3.16 µM [activator, single point]",–
CCN(CC)CC(=O)Nc1c(C)cccc1C,"inconclusive: 2.82 µM [inhibitor, partial curve, poor fit]",–
CCCC(CCC)C(=O)NC1CCN(Cc2ccccc2)CC1,"inconclusive: 7.08 µM [inhibitor, full curve, poor fit]",–
CCOc1cc(CNn2cnnc2)cc(Br)c1OCC(=O)NC1CCCCC1,inactive,–
CCc1cccc2cc3c(N)c(C(=O)Nc4ccc(S(=O)(=O)N5CCCC5)cc4)sc3nc12,"inconclusive: 15.8 µM [inhibitor, partial curve, poor fit]",–
Cc1ccsc1C(=O)OCC(=O)NCCC1=CCCCC1,inactive,–
CC(=O)CSc1ncnc2c1cnn2-c1ccccc1,"inconclusive: 14.6 µM [inhibitor, partial curve, poor fit]",–
CN(Cc1ccccn1)C(=O)CC1C(=O)NCCN1Cc1cccc(Oc2ccccc2)c1 (centres undefined),"inconclusive: 35.5 µM [inhibitor, partial curve, poor fit]",–
O=C(Cc1ccccc1)NNC1=NS(=O)(=O)c2ccccc21,"inconclusive: 6.31 µM [activator, full curve]",–
Cc1ccc2cc(CN(C)C(=O)C3CCCO3)c(=O)[nH]c2c1 (centres undefined),"inconclusive: 35.5 µM [activator, single point]",–
COc1ccc(C(=O)COC(=O)c2ccc(NC(=O)c3ccccc3)cc2)cc1,inactive,–
O=C(CCn1c(=S)oc2ccccc21)N1CCCCC1,inactive,–
COc1ccc(Cl)cc1NC(=O)CN(c1cc(C)cc(C)c1)S(=O)(=O)c1c(C)n[nH]c1C,inactive,–
NNC(=O)CNC(=O)c1ccc(F)cc1,"inconclusive: 5.62 µM [activator, single point]",–
COc1ccc2c(c1)c(=O)c(S(=O)(=O)c1ccc(C)c(C)c1)cn2CC(=O)Nc1ccccc1,"inconclusive: 35.5 µM [inhibitor, single point]",–
Cc1cc(C)c2nc(N3CCN(C)CC3)c(C#N)cc2c1,"inconclusive: 8.91 µM [activator, partial curve, poor fit]",–
